Measurements taken from the supplement of paper PMC10849652.
Some of the results follow. Residues, ends and D or L forms follow the SMILES beside them. *: point of attachment. Cbz = O=C(OCc1ccccc1)*

Amino acid sequences for entries named in this document (tags omitted). A change or cut given only in a name is not applied to a line headed by its entry.
UniProt P61224: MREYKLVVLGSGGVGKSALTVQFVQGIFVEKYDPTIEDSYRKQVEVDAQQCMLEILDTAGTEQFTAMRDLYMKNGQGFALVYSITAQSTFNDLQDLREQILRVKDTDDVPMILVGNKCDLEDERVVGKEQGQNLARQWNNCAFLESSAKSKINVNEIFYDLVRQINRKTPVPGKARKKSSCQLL
UniProt P78406: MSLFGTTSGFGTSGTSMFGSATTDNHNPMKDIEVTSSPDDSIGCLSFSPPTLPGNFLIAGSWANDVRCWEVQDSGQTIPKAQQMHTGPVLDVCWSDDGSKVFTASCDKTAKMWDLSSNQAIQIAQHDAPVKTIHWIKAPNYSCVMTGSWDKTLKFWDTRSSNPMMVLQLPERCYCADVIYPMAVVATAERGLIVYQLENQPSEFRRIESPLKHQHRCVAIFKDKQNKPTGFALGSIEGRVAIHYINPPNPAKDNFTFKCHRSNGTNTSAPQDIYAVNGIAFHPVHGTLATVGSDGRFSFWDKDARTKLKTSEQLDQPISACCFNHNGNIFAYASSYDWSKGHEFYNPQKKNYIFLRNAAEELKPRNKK
UniProt Q8TDY2, whole entry, looked up: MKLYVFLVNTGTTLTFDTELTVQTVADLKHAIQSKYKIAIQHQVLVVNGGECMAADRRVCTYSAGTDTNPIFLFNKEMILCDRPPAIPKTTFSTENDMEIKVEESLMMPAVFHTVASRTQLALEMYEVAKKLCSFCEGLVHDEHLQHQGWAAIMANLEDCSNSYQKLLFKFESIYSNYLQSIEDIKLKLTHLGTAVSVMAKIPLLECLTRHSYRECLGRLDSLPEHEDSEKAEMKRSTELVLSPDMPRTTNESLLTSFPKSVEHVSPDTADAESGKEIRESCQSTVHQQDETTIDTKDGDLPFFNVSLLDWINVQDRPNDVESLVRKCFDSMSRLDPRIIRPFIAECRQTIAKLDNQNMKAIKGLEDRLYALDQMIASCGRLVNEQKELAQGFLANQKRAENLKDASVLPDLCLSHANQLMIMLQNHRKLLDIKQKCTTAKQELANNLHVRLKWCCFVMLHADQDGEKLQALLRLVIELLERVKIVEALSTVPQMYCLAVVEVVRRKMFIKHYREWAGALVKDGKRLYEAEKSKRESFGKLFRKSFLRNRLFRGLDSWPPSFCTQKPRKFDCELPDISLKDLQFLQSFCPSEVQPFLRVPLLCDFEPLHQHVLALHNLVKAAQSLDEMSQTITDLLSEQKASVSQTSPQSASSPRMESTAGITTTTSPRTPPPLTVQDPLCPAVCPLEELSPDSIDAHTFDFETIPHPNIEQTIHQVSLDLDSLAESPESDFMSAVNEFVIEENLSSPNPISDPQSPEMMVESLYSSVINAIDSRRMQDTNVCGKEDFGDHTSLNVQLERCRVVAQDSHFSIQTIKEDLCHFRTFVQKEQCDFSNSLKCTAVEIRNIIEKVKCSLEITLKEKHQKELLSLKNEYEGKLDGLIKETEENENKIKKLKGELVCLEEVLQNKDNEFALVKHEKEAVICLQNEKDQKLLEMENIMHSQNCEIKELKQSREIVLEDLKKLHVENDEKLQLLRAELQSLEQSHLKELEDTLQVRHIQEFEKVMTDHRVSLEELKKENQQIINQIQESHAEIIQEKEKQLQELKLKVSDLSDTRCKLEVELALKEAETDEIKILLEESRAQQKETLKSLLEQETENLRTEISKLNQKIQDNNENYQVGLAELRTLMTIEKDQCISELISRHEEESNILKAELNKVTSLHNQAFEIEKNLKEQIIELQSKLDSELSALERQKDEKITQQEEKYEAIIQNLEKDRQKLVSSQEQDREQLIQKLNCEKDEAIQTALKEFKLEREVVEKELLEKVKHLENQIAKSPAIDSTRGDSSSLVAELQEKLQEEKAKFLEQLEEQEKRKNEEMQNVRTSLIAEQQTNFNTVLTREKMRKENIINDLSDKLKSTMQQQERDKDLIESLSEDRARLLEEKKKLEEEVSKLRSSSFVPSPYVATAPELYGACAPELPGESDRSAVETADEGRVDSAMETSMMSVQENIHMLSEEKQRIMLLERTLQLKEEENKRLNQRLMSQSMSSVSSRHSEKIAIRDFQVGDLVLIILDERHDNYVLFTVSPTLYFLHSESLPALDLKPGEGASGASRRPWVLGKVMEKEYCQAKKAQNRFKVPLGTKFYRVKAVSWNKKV
UniProt Q15286: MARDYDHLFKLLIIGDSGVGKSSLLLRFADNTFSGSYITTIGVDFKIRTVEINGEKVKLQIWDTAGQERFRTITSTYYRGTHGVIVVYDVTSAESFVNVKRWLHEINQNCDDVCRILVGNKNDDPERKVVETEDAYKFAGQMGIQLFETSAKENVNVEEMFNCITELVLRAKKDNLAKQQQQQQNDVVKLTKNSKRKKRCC
UniProt Q8N0T1: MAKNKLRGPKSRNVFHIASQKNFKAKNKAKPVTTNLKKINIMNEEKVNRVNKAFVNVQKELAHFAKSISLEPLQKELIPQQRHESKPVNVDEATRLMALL
UniProt Q96I25: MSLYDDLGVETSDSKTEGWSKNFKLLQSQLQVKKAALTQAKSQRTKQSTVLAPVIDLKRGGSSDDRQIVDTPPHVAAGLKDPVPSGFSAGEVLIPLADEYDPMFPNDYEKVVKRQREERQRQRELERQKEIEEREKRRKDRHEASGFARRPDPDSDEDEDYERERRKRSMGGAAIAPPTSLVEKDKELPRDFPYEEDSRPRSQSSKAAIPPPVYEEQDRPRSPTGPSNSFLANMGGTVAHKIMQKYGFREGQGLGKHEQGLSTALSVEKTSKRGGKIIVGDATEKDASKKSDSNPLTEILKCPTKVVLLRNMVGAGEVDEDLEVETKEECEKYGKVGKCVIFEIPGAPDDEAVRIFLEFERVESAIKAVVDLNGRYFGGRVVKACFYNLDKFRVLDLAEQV
UniProt Q9H2M9: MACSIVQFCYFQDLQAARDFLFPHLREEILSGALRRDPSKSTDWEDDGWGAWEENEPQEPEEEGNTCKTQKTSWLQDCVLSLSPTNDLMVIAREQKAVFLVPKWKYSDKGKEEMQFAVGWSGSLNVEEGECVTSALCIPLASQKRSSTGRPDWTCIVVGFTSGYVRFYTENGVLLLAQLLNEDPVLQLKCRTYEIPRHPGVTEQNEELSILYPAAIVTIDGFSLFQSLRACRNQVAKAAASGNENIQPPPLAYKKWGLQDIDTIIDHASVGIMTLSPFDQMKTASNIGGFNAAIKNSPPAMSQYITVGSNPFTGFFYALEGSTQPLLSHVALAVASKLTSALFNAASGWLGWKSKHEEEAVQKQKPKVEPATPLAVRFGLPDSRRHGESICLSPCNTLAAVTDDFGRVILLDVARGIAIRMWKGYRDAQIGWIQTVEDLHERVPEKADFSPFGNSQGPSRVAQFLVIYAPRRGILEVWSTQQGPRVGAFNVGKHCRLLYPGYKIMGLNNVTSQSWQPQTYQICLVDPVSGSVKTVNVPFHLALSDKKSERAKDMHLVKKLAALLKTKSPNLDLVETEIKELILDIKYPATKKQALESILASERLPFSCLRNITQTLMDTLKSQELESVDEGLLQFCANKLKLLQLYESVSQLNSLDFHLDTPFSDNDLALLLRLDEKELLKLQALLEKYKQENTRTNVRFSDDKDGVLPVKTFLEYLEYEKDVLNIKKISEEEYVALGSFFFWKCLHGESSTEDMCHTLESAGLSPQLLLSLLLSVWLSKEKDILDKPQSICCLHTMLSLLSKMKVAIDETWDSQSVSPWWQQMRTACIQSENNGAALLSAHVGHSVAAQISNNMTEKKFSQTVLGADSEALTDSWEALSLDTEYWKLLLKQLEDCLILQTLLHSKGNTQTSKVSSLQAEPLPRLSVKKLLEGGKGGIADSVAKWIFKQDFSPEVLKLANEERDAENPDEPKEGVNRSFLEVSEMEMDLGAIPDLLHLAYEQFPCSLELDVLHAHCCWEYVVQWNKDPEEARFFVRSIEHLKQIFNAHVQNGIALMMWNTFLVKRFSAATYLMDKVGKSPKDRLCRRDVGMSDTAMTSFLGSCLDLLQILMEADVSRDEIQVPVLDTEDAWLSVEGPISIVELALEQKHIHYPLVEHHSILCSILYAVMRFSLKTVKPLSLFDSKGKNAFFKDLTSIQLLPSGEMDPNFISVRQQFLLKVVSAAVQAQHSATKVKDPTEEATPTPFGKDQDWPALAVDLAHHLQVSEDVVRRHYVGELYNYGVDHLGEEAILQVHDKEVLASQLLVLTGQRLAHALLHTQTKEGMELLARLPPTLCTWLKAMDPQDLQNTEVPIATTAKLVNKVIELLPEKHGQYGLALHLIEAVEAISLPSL
UniProt Q9UKM9: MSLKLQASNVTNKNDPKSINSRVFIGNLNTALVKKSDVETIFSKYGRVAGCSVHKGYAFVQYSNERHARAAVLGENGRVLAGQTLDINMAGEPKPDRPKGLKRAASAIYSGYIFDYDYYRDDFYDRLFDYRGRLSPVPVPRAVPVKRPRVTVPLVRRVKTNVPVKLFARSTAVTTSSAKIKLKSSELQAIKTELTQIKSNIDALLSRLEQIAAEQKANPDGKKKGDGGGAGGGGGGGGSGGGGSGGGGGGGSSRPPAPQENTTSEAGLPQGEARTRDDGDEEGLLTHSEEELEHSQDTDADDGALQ
UniProt Q9UL25: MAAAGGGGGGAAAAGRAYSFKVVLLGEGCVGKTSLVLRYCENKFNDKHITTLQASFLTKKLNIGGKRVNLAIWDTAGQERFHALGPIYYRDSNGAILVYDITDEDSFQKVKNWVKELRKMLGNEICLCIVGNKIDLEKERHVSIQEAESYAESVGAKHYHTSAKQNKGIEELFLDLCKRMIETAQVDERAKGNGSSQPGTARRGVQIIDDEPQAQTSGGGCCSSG
UniProt P47736: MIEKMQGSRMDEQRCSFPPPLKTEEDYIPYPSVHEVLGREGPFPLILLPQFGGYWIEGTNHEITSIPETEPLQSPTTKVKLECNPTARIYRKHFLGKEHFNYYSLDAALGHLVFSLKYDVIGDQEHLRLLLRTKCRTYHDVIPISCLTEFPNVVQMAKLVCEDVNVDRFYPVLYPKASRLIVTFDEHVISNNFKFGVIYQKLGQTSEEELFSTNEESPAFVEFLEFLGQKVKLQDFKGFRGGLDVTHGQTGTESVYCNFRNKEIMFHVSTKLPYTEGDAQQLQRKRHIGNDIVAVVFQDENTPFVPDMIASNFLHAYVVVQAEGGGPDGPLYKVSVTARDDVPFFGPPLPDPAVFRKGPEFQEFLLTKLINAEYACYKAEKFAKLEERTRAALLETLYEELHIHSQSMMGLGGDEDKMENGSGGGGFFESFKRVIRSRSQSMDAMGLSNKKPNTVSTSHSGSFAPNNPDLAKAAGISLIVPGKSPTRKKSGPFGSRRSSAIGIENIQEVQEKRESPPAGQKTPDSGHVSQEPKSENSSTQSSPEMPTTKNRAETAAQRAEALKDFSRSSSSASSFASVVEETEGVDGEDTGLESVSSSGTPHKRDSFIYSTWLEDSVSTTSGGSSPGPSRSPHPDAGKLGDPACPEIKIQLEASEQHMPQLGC
UniProt P20340: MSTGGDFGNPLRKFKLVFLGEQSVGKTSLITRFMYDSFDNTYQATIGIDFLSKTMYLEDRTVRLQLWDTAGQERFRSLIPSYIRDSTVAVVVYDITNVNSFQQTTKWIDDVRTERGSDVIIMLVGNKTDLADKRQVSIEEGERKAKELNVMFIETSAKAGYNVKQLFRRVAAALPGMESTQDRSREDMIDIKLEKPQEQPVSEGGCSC
UniProt P06400: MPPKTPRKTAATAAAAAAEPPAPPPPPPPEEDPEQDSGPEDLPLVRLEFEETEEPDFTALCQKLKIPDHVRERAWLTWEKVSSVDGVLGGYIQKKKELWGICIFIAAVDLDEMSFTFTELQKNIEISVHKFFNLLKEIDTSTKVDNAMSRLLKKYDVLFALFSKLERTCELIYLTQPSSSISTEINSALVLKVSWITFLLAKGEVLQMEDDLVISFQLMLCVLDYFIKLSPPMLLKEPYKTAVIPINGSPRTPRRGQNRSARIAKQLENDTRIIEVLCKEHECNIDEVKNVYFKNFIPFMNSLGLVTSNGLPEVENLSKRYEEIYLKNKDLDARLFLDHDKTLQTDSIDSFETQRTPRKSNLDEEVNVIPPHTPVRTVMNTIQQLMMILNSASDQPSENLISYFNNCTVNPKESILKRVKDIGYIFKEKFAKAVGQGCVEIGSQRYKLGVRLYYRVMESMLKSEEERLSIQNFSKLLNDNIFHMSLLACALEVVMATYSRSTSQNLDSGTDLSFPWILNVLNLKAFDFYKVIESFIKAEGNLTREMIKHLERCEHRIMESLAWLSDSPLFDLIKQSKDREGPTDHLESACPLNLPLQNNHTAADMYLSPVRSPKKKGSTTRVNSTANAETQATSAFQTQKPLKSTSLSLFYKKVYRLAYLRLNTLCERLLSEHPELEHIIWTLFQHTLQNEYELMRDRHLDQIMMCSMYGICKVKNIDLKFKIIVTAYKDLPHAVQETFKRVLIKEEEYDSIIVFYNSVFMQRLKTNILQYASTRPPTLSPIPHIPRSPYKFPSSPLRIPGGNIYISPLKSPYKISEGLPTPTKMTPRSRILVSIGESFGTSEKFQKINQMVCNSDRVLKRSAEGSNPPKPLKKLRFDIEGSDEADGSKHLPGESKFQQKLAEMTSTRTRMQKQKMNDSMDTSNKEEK

Legend:
Assay in all cases: log2 fold change, soluble protein after heating vs DMSO (PISA); higher = thermal stabilisation; K562 cells, 10 uM, 30 min; active = over 0.2 and 3.5 SD of the protein, either way, in both replicates (recomputed)
[1] = compound: C#Cc1cccc(Nc2ncnc3cc(OCCOC)c(OCCOC)cc23)c1 [erlotinib]
How it was run: (§1)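 K562 cells at 2×10^6 cells/mL were exposed to 10 μM compound for 30 min, then aliquots were heated for 3 min across 48°C-58°C, pooled, and extracted in PBS containing 0.5% NP-40 at 4°C. The supernatant after 21,000xg for 90 min was taken as soluble protein and measured by TMTpro 16plex LC-MS/MS with channel sums equalised. Thermal stability is reported relative to control samples, with values from duplicates. Fold changes are given on a log2 scale.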

[2] = compound: C/C(=N\NC(=O)C1=CC(=CC=C1)S(=O)(=O)N2CCOCC2)/C3=C(C=CC(=C3)Cl)O
How it was run: as §1

[3] = compound: C1=CC(=C(C=C1Cl)C2=NC3=NC=CN=C3C(=N2)NC4=CC=NC=C4)F
How it was run: as §1

[4] = compound: C1=CC(=CC=C1C2=NC3=C(N2)C=C(C=C3)C(=O)N)OC4=CC=C(C=C4)Cl
How it was run: as §1

[5] = compound: C1=CC2=C(C=CC(=C2)/C=C\3/C(=O)NC(=NCC4=CC=CS4)S3)N=C1
How it was run: as §1

[6] = compound: C1=CC2=NC=CN=C2C=C1/C=C/3\C(=O)NC(=O)S3
How it was run: as §1

[7] = compound: C1=CC=C(C=C1)C2=NC(=C(N2)C3=CC=NC=C3)C4=CC(=C(C=C4)Cl)O
How it was run: as §1

[8] = compound: C1=CC=C2C(=C1)C3=NNC4=CC=CC(=C43)C2=O
How it was run: as §1

[9] = compound: C1CCN(C1)C(=O)NC2=CC=CC(=C2)NC3=NC=C(C(=N3)NCCC4=CN=CN4)Br
How it was run: as §1

[10] = compound: C1CN(CCC1(CC2=CC=C(C=C2)Cl)N)C3=NC=NC4=C3C=CN4
How it was run: as §1

[11] = compound: C1COCCN1CCN2C3=CC=CC=C3N=C2NC(=O)C4=CC(=CC=C4)[N+](=O)[O-] [IRAK-1-4 Inhibitor I]
How it was run: as §1

[12] = compound: C=CC(=O)N1CCC[C@@H](n2nc(-c3ccc(Oc4ccccc4)cc3)c3c(N)ncnc32)C1 [ibrutinib]
How it was run: as §1

[13] = compound: CC(=O)c1cnc2ccc(-c3cc(Cl)c(O)c(Cl)c3)nc2c1N[C@H]1CC[C@H](CN(C)C)CC1
How it was run: as §1

[14] = compound: CC(C)(C)Cn1c(N)nc2ccc(-c3[nH]c(C(C)(C)C)nc3-c3ccc(F)cc3)nc21 [ralimetinib]
How it was run: as §1

[15] = compound: CC(C)(O)CC(=O)NCCn1ccc2ncnc(Nc3ccc(Oc4cccc(C(F)(F)F)c4)c(Cl)c3)c21
How it was run: as §1

[16] = compound: CC(C)C1=C2N=C(C=C(N2N=C1)NCC3=CC=CC=C3)NCCCCCCN
How it was run: as §1

[17] = compound: CC(C)C[C@@H](C=O)NC(=O)[C@H](CC(C)C)NC(=O)[C@H](CC(C)C)NC(=O)OCc1ccccc1
How it was run: as §1

[18] = compound: CC(C)N(C[C@H]1O[C@@H](n2cnc3c(N)ncnc32)[C@H](O)[C@@H]1O)[C@H]1C[C@@H](CCc2nc3cc(C(C)(C)C)ccc3[nH]2)C1 [pinometostat]
How it was run: as §1

[19] = compound: CC1=C(C(CC(=O)N1)C2=CC=C(C=C2)C(F)(F)F)C(=O)NC3=C(C=C4C(=C3)C=NN4)F
How it was run: as §1

[20] = compound: CC1=C(C2=C(C=C1)C(=O)C3=CC=CC=C3N2CCCN)C
How it was run: as §1

Target	log2 fold change [1]	log2 fold change [2]	log2 fold change [3]	log2 fold change [4]	log2 fold change [5]	log2 fold change [6]	log2 fold change [7]	log2 fold change [8]	log2 fold change [9]	log2 fold change [10]	log2 fold change [11]	log2 fold change [12]	log2 fold change [13]	log2 fold change [14]	log2 fold change [15]	log2 fold change [16]	log2 fold change [17]	log2 fold change [18]	log2 fold change [19]	log2 fold change [20]
RAP1B (UniProt P61224)	inactive: -0.016	inactive: 0.046	inactive: 0.111	inactive: -0.015	inactive: -0.065	inactive: 0.045	inactive: -0.01	inactive: -0.016	inactive: -0.049	inactive: 0.05	inactive: 0.064	inactive: 0.024	inactive: 0.024	inactive: 0.101	inactive: -0.004	inactive: 0.082	inactive: -0.036	inactive: -0.026	inactive: 0.038	inactive: 0.02
RAE1 (UniProt P78406)	inactive: 0.016	inactive: 0.017	inactive: -0.181	inactive: 0.047	inactive: 0.063	inactive: -0.034	inactive: -0.014	inactive: 0.024	inactive: -0.057	inactive: -0.029	inactive: -0.086	inactive: -0.077	inactive: -0.05	inactive: 0.085	inactive: 0.022	inactive: -0.144	inactive: -0.006	inactive: 0.081	inactive: -0.061	inactive: -0.004
RB1CC1 (UniProt Q8TDY2)	inactive: 0.119	inactive: -0.066	inactive: 0.102	inactive: 0.046	inactive: 0.211	inactive: -0.07	inactive: 0.015	inactive: 0.03	inactive: -0.024	inactive: 0.022	inactive: 0.092	inactive: 0.094	inactive: 0.045	inactive: 0.089	inactive: -0.11	inactive: 0.045	inactive: 0.03	inactive: -0.023	–	inactive: 0.041
RAB35 (UniProt Q15286)	inactive: 0.019	inactive: -0.002	inactive: 0.036	inactive: 0.008	inactive: -0.019	inactive: 0.043	inactive: -0.011	inactive: -0.034	inactive: 0.002	inactive: 0.057	inactive: 0.037	inactive: 0.031	inactive: 0.018	inactive: -0.063	inactive: 0.025	inactive: -0.022	inactive: 0.002	inactive: 0.008	inactive: 0.005	inactive: 0.024
RAB8B (UniProt Q92930)	inactive: 0.258	inactive: 0.085	active: 0.332	inactive: 0.028	inactive: -0.02	inactive: 0.145	inactive: 0.029	inactive: 0.012	inactive: 0.027	inactive: -0.043	inactive: 0.028	inactive: -0.009	inactive: 0	inactive: -0.001	inactive: -0.047	inactive: -0.002	inactive: 0.046	inactive: -0.091	–	inactive: 0.004
RABGEF1 isoform 3 (UniProt Q9UJ41)	inactive: -0.027	inactive: -0.006	inactive: -0.009	inactive: 0.01	inactive: 0.012	inactive: 0.023	inactive: -0.034	inactive: -0.027	inactive: -0.035	inactive: -0.029	inactive: 0	inactive: -0.028	inactive: -0.084	inactive: -0.066	inactive: -0.025	inactive: 0.002	inactive: 0.041	inactive: 0	inactive: 0.005	inactive: 0.011
RBIS (UniProt Q8N0T1)	inactive: -0.051	inactive: 0.015	inactive: -0.038	inactive: 0.044	inactive: 0.007	inactive: 0.031	inactive: -0.121	inactive: -0.083	inactive: 0.037	inactive: -0.093	inactive: -0.038	inactive: 0.019	inactive: -0.109	inactive: -0.021	inactive: 0.083	inactive: -0.001	active: 0.281	inactive: 0.044	–	active: -0.478
RANBP10 (UniProt Q6VN20)	inactive: -0.217	inactive: -0.057	inactive: -0.003	inactive: 0.137	inactive: 0.032	inactive: 0.054	inactive: -0.109	inactive: -0.066	inactive: -0.045	inactive: -0.078	inactive: -0.024	inactive: 0	inactive: 0.017	inactive: 0.057	inactive: -0.024	inactive: 0.036	inactive: 0.079	inactive: -0.011	inactive: 0.122	inactive: 0.013
RBM17 (UniProt Q96I25)	inactive: 0.039	inactive: 0.044	inactive: 0.015	inactive: -0.023	inactive: -0.085	inactive: -0.029	inactive: 0.1	inactive: 0.011	inactive: -0.08	inactive: -0.16	inactive: -0.037	inactive: 0.114	inactive: -0.179	inactive: 0.158	inactive: -0.077	inactive: -0.053	inactive: 0.029	inactive: 0.11	–	inactive: 0.012
RAB3GAP2 (UniProt Q9H2M9)	inactive: 0.068	inactive: 0.083	inactive: -0.043	inactive: -0.058	inactive: 0.035	inactive: -0.011	inactive: -0.025	inactive: 0.004	inactive: -0.068	inactive: -0.018	inactive: -0.079	inactive: -0.016	inactive: -0.031	inactive: 0.03	inactive: 0	active: -0.26	inactive: 0.026	inactive: 0.115	–	inactive: -0.016
RALY (UniProt Q9UKM9)	inactive: 0.018	inactive: -0.072	inactive: -0.541	inactive: 0.189	inactive: -0.144	inactive: 0.154	inactive: -0.11	inactive: 0.038	inactive: 0.008	inactive: -0.22	inactive: -0.315	inactive: 0.001	inactive: -0.21	inactive: -0.029	inactive: 0.055	inactive: -0.101	inactive: 0.083	inactive: 0.129	–	inactive: -0.311
RAB21 (UniProt Q9UL25)	inactive: 0.003	inactive: 0.048	inactive: 0.053	inactive: 0.025	inactive: 0.022	inactive: 0.03	inactive: -0.025	inactive: -0.023	inactive: -0.047	inactive: 0.024	inactive: 0.019	inactive: 0.003	inactive: 0.014	inactive: -0.036	inactive: -0.014	inactive: -0.032	inactive: -0.052	inactive: -0.013	inactive: 0.004	inactive: 0.04
RAB14 (UniProt P61106)	inactive: -0.018	inactive: 0.013	inactive: 0.025	inactive: 0.012	inactive: 0.026	inactive: 0.007	inactive: 0.053	inactive: -0.009	inactive: -0.023	inactive: 0.041	inactive: 0.009	inactive: 0.011	inactive: -0.007	inactive: 0.046	inactive: 0.006	inactive: 0.057	inactive: -0.045	inactive: -0.058	inactive: -0.024	inactive: 0.023
RAP1GAP isoform 4 (UniProt P47736)	inactive: 0.059	inactive: 0.106	inactive: -0.056	inactive: 0.03	inactive: -0.016	inactive: -0.055	inactive: -0.008	inactive: 0.139	inactive: -0.096	inactive: -0.048	inactive: -0.006	inactive: -0.027	inactive: -0.137	inactive: -0.012	inactive: -0.027	inactive: -0.278	inactive: 0.082	inactive: -0.021	inactive: 0.077	inactive: 0.043
RAB6A isoform 2 (UniProt P20340)	inactive: -0.005	inactive: 0.019	inactive: -0.05	inactive: -0.002	inactive: -0.003	inactive: 0.046	inactive: 0.016	inactive: -0.033	inactive: 0.004	inactive: 0.034	inactive: 0.085	inactive: 0.003	inactive: -0.018	inactive: -0.017	inactive: 0.037	inactive: 0.09	inactive: -0.054	inactive: 0.011	inactive: 0.004	inactive: 0.027
RB1 (UniProt P06400)	inactive: -0.007	inactive: 0.041	inactive: 0.012	inactive: 0.016	inactive: 0.124	inactive: 0.04	inactive: 0.034	inactive: -0.114	inactive: -0.065	inactive: -0.02	inactive: 0.015	inactive: 0.025	active: -0.761	inactive: -0.06	inactive: -0.054	active: -0.386	inactive: 0.032	inactive: -0.006	–	inactive: -0.035

Just log2 fold change [1] and log2 fold change [15], for some of the entries so far:

| Target | log2 fold change [1] | log2 fold change [15] |
| --- | --- | --- |
| RAE1 (UniProt P78406) | inactive: 0.016 | inactive: 0.022 |
| RB1CC1 (UniProt Q8TDY2) | inactive: 0.119 | inactive: -0.11 |
